# Measured data: PubChem BioAssay AID1259405 (NCATS, 2018)
# Purpose: 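Knock-downs that lift recombinant protein yield in hamster ovary cells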 (primary screen)
# Cells: Chinese hamster CHO-K1 ovary cells with stable secreted eGFP expression
# Reagents: single siRNA against mouse genes, 0.8 pmol siRNA per well (2 µl of 400 nM stock)
# Timing: 3 days
# Detection: 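Per-well intracellular GFP measured by laser scanning cytometry, plus viability from ATP luminescence, each relative to plate median of non-targeting control wells, in %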
# Scale: GFP, % of control: higher = more GFP per well, higher productivity; viability (ATP), % of control: higher = more viable cells (more ATP)
# Hit rule: 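Called active when intracellular GFP, relative to negative control, is at or above 120%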
# The whole screen tested about 50,000 reagents; shown is a random part of them. Of all reagents, about 4,000 (8%) got an active call. 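Mouse siRNA library applied to hamster cells; one well for each siRNA.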 Reagents against one gene are numbered here.
Target gene,reagent,"GFP, % of control","viability (ATP), % of control",Call
Atraid,1,85.6,86.1,inactive
Atraid,2,117,106,inactive
Atraid,3,81.9,81.9,inactive
Stx8,1,126,114,active
Stx8,2,95.7,77.4,inactive
Pan3,1,73.3,88,inactive
Pan3,2,74.8,106,inactive
Or9a2,1,30.7,26.1,inactive
Or9a2,2,68,79.5,inactive
Or9a2,3,50.6,74.9,inactive
Whamm,1,60.3,55.7,inactive
Whamm,2,61.7,88.2,inactive
Whamm,3,64,80.7,inactive
Purb,1,83.8,55.5,inactive
Purb,2,96.2,61.6,inactive
Purb,3,65.8,62.7,inactive
Lrrc14b,1,107,84.3,inactive
Lrrc14b,2,85.5,96.3,inactive
Lrrc14b,3,72.5,92.6,inactive
Jund,1,71,98.7,inactive
Jund,2,61.5,35.4,inactive
Jund,3,79.6,86.2,inactive
Gapdhs,1,79.7,120,inactive
Gapdhs,2,86.8,72.7,inactive
Il1rl2,1,91.1,97.2,inactive
Il1rl2,2,47.4,59.5,inactive
Il1rl2,3,63.4,66,inactive
Gzmm,1,80.3,73.3,inactive
Gzmm,2,37.7,30.5,inactive
Gzmm,3,63.5,69.9,inactive
Specc1,1,67.6,74.4,inactive
Specc1,2,73.2,79.9,inactive
Specc1,3,94.9,79.6,inactive
Loxl2,1,121,90.5,active
Loxl2,2,75.2,55.5,inactive
Loxl2,3,62.8,68.1,inactive
Mcrip2,1,75.8,72,inactive
Mcrip2,2,86.4,48.9,inactive
Mcrip2,3,73.6,75.5,inactive
Mbnl1,1,72.9,50.8,inactive
Mbnl1,2,76.1,87.5,inactive
Mbnl1,3,74.2,73,inactive
Foxl1,1,76.8,106,inactive
Foxl1,2,92.6,96.3,inactive
Anxa9,1,82,93.9,inactive
Anxa9,2,81.9,85,inactive
Anxa9,3,56.3,42.2,inactive
Cd40lg,1,74.6,72.5,inactive
Cd40lg,2,63.9,45.5,inactive
Cd40lg,3,49.5,43.6,inactive
Zfp451,1,154,99.3,active
Zfp451,2,75.6,55,inactive
Zfp451,3,79.2,75.7,inactive
Arhgap10,1,154,97,active
Arhgap10,2,83.9,71.7,inactive
Arhgap10,3,48.5,68.5,inactive
Arhgap10,4,85.8,97.3,inactive
Arhgap10,5,73.2,101,inactive
Arhgap10,6,73.2,87.4,inactive
Efnb2,1,62.6,73.9,inactive
Efnb2,2,105,83.1,inactive
Efnb2,3,85.4,64.4,inactive
Pcdhgb2,1,107,70.7,inactive
Pcdhgb2,2,54.9,62.6,inactive
Pcdhgb2,3,49.2,63.7,inactive
Mto1,1,102,81.8,inactive
Mto1,2,53.5,81.9,inactive
Mto1,3,107,64.3,inactive
Ctss,1,72.3,102,inactive
Ctss,2,41.9,46.7,inactive
Ctss,3,56.2,48.8,inactive
Eef1g,1,89.7,82.4,inactive
Eef1g,2,90.7,76.1,inactive
Tepsin,1,107,65.4,inactive
Tepsin,2,59.3,94.8,inactive
Tepsin,3,142,95.6,active
Lzts3,1,43,34.7,inactive
Lzts3,2,45.4,76.2,inactive
Lzts3,3,133,83.8,active
Thbs2,1,108,120,inactive
Thbs2,2,39.5,48.4,inactive
Drc11l,1,110,77,inactive
Drc11l,2,58.6,66.1,inactive
Drc11l,3,73.3,86.2,inactive
Odf1,1,70,93.4,inactive
Odf1,2,85.6,82.1,inactive
Tmbim4,1,64.5,72.9,inactive
Tmbim4,2,57.6,89.3,inactive
Tmbim4,3,69.5,55.5,inactive
Spata7,1,94.8,75.3,inactive
Spata7,2,102,115,inactive
Spata7,3,159,108,active
Cd93,1,102,81.8,inactive
Cd93,2,97.7,54.7,inactive
Cd93,3,112,68.1,inactive
Slc13a4,1,95.1,96.1,inactive
Slc13a4,2,55,60,inactive
Slc13a4,3,54.2,69.8,inactive
Manf,1,90.6,53.9,inactive
Manf,2,83.9,66.5,inactive
Manf,3,46.5,33.9,inactive
Or4c114,1,64.2,62.2,inactive
Or4c114,2,53.4,39.4,inactive
Or4c114,3,60.7,87.4,inactive
Teddm3,1,133,98.6,active
Teddm3,2,88.7,105,inactive
Teddm3,3,76.1,85.6,inactive

As entered above.
Tmbim4 #1, GFP, % of control: 64.5
Result of Tepsin #2 under “GFP, % of control”: 59.3
Value of Anxa9 #2 under “viability (ATP), % of control”: 85
Il1rl2 #3, Call → inactive
Result for Gzmm #2 under “Call”: inactive
Under “viability (ATP), % of control”, Ctss #3 shows 48.8
